From patent US20240092935A1

Columns and labels:
[1] = target: Asialo-BSM (desialylated bovine submaxillary mucin) (bovine); experiment: flow cytometry inhibition assay on LSC cells, soluble Asialo-BSM as inhibitor
[2] = target: Asialo-BSM (desialylated bovine submaxillary mucin) (bovine); experiment: Western blot with BaGs6 ascites
[3] = target: Bovine submaxillary mucin (BSM) (bovine); experiment: Western blot with BaGs6 ascites
[4] = target: Bovine submaxillary mucin (BSM) (bovine); experiment: fluorescence microscopy of BSM beads
[5] = target: Asialo-BSM (desialylated bovine submaxillary mucin) (bovine); experiment: fluorescence microscopy of Asialo-BSM beads

binding [1]: binds
binding [2]: binds
binding [3]: binds
binding [4]: binds
binding [5]: binds
B1: BaGs6, murine IgM anti-Tn monoclonal antibody from mouse ascites (antibody, V domains shown)
VH: DTMLQQSDAELVKPGASVKMSCKASGYTFTDHAIHWVKQKPEQGLEWIGYVSPGNGDIKYNEKFKGKATLSADKSSSTAYMQLNSLTSEDSAVYFCKRSYGSFDYWGQGTTLTVSS
VL: QIVLTQSPAIMSSSPGEKVALSCSASSSVSYVYWYQQKPGSSPKPWIYRTSNLASGVPARFSGSGSGTSYSLTISSMEAEDAATYYCQQYHSYPFTFGSGTKLEIKR

No constants are given. Whether binding was seen depends on the method and setting. A result given as binding can be weak or reduced; the word gives no strength.
